Results are given in words; binding and its absence hold for the method and conditions named. Binding seen in cells or lysates may run through a third protein. Some binding calls cover weakened binding; strength is not graded here. Where a sequence is shown, tags or fusion partners need not be part of it.

Protein sequences, listed by entry. Tags and fused reporters are not part of them. Lines headed by an entry give the natural chain unless they say otherwise; changes in a name come on top.
UniProt P21187: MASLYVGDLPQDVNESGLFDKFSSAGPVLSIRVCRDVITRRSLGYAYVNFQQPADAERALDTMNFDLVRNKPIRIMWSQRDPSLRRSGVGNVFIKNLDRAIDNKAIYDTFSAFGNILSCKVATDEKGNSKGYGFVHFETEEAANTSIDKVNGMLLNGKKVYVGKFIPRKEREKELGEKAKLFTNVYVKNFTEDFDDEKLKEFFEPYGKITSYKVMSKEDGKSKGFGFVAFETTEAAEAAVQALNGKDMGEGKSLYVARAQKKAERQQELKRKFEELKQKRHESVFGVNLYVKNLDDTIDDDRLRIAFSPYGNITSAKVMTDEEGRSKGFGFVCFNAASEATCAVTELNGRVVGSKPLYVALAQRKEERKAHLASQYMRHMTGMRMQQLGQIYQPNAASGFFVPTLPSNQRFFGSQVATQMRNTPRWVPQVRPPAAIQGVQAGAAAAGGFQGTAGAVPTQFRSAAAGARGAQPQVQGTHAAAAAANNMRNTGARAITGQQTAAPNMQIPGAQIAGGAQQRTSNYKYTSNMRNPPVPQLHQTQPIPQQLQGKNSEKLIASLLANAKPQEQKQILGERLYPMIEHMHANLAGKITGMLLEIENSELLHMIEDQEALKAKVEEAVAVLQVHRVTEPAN

Assay [1] addresses poly(A) binding protein (pAbp) in S2R+ cells, co-IP of Fig 5D (Drosophila) (UniProt P21187). Nature of the assay: co-IP; FLAG-Mkrn1 wild type or PAM2 mutant and pAbp in S2R+ cells; immunoblot; which partner was precipitated is not told. (A western blot detects proteins with antibodies after separation by electrophoresis.)
In assay [2] the target is GFP-tagged poly(A) binding protein (GFP-pAbp) (Drosophila) (UniProt P21187). Nature of the assay: co-IP; S2R+ cells, 2 mg protein lysate incubated 2 h with Myc-Trap or GFP-Trap beads; in the absence or presence of 50 U RNase T1; immunoblot.
Assay [3] addresses T1, Myc-tagged Squid (Myc-Sqd) (Drosophila) (UniProt Q08473).
T1 sequence: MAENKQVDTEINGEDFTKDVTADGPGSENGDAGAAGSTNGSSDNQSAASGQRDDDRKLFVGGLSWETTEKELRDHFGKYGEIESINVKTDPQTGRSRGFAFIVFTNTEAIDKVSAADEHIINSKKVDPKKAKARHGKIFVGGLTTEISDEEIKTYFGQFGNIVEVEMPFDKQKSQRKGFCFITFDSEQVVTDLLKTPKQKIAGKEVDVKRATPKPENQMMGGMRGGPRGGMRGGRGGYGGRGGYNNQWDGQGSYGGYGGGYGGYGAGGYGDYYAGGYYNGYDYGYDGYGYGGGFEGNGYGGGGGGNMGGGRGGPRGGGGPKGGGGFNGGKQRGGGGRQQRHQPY
The assay is described as above.

The target of assay [4] is T2, Myc-tagged maternal expression at 31B (Myc-Me31B) (Drosophila) (UniProt P23128).
T2 sequence: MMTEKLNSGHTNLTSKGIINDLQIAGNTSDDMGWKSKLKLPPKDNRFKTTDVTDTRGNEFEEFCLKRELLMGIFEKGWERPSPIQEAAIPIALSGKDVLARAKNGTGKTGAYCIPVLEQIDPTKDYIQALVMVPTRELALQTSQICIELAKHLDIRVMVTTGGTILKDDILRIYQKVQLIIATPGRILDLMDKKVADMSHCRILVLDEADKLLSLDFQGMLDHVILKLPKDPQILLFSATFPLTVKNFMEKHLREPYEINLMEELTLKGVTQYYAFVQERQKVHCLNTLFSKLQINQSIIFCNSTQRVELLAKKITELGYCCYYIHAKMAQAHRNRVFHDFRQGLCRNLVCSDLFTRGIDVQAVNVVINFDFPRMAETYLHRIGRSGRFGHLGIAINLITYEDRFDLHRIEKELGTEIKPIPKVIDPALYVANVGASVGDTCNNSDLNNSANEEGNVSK
Described as above.

In assay [5] the target is poly(A) binding protein (pAbp), endogenous in ovaries (Drosophila (endogenous in ovaries)) (UniProt P21187). Nature of the assay: co-IP; ovary extracts of flies expressing Venus-Mkrn1, IP buffer (1 X PBS, 0.4% Triton X-100, 1 mM MgCl2, 5% glycerol); IP with anti-pAbp Fab antibody or α-eIF4G rabbit antibody overnight at 4°C, protein A agarose; RNase A when present; western blot.

B1: FLAG-tagged Mkrn1 (FLAG-Mkrn1) in S2R+ cells (protein, UniProt Q9VP20 1-386)
chain: MSAVTSSDTAISGMALGRSQTICRYYVRGICRFGELCRFSHDLSRGRPECEEQVATDVLPKPSTSSSSTIGSRSASISSQQRNWANAPVFVPSQKRYTAHEQSEFETTVDPEAVMEAQAGASYDTLAPGVSWAEVVGGPSSLNKEDYGEENSSCAWGEFSAYPIHMELCEMCDQYCLHPTDQVQRRSHNRECLQQHEQAMELSFAIARSKDKTCGICFDTIMEKAGREKRFGILPNCNHIFCLECIRTWRQAKQFENKITRACPECRVCSDFVCPSAFWMETKEEKDKLLNDYRAALGAKDCKYFKKGEGKCPFGNKCFYKHALPNGDIVDVGLPKRTRKLQSQNEIIDLLDIYLWDYVDRRDYHWLEMISSDITSSESSDYSDED
Take B1: in assay [1], the binding result is given as “binds”.

B2: FLAG-tagged Mkrn1 with mutated PAM2 motif (Mkrn1^PAM2) (protein, UniProt Q9VP20 1-386)
chain: MSAVTSSDTAISGMALGRSQTICRYYVRGICRFGELCRFSHDLSRGRPECEEQVATDVLPKPSTSSSSTIGSRSASISSQQRNWANAPVAVASQKRYTAHEQSEFETTVDPEAVMEAQAGASYDTLAPGVSWAEVVGGPSSLNKEDYGEENSSCAWGEFSAYPIHMELCEMCDQYCLHPTDQVQRRSHNRECLQQHEQAMELSFAIARSKDKTCGICFDTIMEKAGREKRFGILPNCNHIFCLECIRTWRQAKQFENKITRACPECRVCSDFVCPSAFWMETKEEKDKLLNDYRAALGAKDCKYFKKGEGKCPFGNKCFYKHALPNGDIVDVGLPKRTRKLQSQNEIIDLLDIYLWDYVDRRDYHWLEMISSDITSSESSDYSDED
Regarding B2, in assay [1], the binding entry is “binds”.

B3: tagged Mkrn1^RING (protein, UniProt Q9VP20 1-386)
chain: MSAVTSSDTAISGMALGRSQTICRYYVRGICRFGELCRFSHDLSRGRPECEEQVATDVLPKPSTSSSSTIGSRSASISSQQRNWANAPVFVPSQKRYTAHEQSEFETTVDPEAVMEAQAGASYDTLAPGVSWAEVVGGPSSLNKEDYGEENSSCAWGEFSAYPIHMELCEMCDQYCLHPTDQVQRRSHNRECLQQHEQAMELSFAIARSKDKTCGICFDTIMEKAGREKRFGILPNCNEIFCLECIRTWRQAKQFENKITRACPECRVCSDFVCPSAFWMETKEEKDKLLNDYRAALGAKDCKYFKKGEGKCPFGNKCFYKHALPNGDIVDVGLPKRTRKLQSQNEIIDLLDIYLWDYVDRRDYHWLEMISSDITSSESSDYSDED
Regarding B3, the binding result in assay [2], in assay [3] and in assay [4] was “binds” throughout.

B4: Venus-tagged Mkrn1 (Venus-Mkrn1) (protein, UniProt Q9VP20 1-386)
chain: MSAVTSSDTAISGMALGRSQTICRYYVRGICRFGELCRFSHDLSRGRPECEEQVATDVLPKPSTSSSSTIGSRSASISSQQRNWANAPVFVPSQKRYTAHEQSEFETTVDPEAVMEAQAGASYDTLAPGVSWAEVVGGPSSLNKEDYGEENSSCAWGEFSAYPIHMELCEMCDQYCLHPTDQVQRRSHNRECLQQHEQAMELSFAIARSKDKTCGICFDTIMEKAGREKRFGILPNCNHIFCLECIRTWRQAKQFENKITRACPECRVCSDFVCPSAFWMETKEEKDKLLNDYRAALGAKDCKYFKKGEGKCPFGNKCFYKHALPNGDIVDVGLPKRTRKLQSQNEIIDLLDIYLWDYVDRRDYHWLEMISSDITSSESSDYSDED
B4: the binding entry in assay [5] is “binds”.

The values above are taken from article PMC7001992.
